Measurements reported in paper PMC2785842.
No constants are given. Whether binding was seen depends on the method and setting. Binding seen in cells or lysates may run through a third protein. Some entries that bind do so weakly or less than the wild type. Values belong to the binder of their own block, whether it stands above or below them.

Legend:
[1] = biological target: T1, c-FOS (human (endogenous in MCF-7)), P01100; experiment: co-IP; immunoprecipitation from HRG-treated MCF-7 cells, up to 24 hr after HRG stimulation; unpublished data; settings: remark: other sources report otherwise
T1 chain: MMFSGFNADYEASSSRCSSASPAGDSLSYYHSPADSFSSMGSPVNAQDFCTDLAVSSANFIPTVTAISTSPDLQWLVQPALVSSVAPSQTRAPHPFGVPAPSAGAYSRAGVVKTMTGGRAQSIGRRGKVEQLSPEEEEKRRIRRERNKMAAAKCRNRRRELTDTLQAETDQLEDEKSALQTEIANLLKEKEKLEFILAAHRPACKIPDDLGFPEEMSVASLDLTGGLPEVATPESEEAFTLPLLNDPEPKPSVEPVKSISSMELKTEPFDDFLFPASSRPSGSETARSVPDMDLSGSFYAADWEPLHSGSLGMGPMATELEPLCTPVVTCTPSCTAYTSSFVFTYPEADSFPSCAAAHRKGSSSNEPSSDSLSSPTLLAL

[2] = biological target: T1, c-FOS (human (endogenous in MCF-7)), …; experiment: co-IP; lysates of MCF-7 cells treated with 10 nM HRG over a time course; 0.5 mg lysate protein with 6 ug antibody (c-FOS, FRA-1 or FHL2) overnight at 4 C, protein G Plus/Protein A-agarose 3 hrs, washed three times with HNTG buffer (20 mM HEPES pH 7.5, 150 mM NaCl); Western blot for c-JUN, c-FOS, FRA-1 or FHL2; endogenous proteins; settings: remark: other sources report otherwise
[3] = biological target: T2, FHL2 (four and a half LIM domains 2) (human (endogenous in MCF-7)) (UniProt Q14192); experiment: as above
T2 sequence: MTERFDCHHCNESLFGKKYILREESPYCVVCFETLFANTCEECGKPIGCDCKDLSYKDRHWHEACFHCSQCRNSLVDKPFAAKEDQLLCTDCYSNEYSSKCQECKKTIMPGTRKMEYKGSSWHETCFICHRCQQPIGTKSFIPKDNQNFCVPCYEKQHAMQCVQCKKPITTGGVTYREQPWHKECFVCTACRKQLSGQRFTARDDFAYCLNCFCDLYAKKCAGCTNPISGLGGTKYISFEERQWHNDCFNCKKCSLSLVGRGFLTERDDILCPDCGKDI

[4] = biological target: c-FOS (human (endogenous in MCF-7)) (UniProt P01100); experiment: as above

binding [1]: binds | binding [2]: binds
B1: FRA-1 (FOSL-1 protein), P15407 1-271 (protein)
chain: MFRDFGEPGPSSGNGGGYGGPAQPPAAAQAAQQKFHLVPSINTMSGSQELQWMVQPHFLGPSSYPRPLTYPQYSPPQPRPGVIRALGPPPGVRRRPCEQISPEEEERRRVRRERNKLAAAKCRNRRKELTDFLQAETDKLEDEKSGLQREIEELQKQKERLELVLEAHRPICKIPEGAKEGDTGSTSGTSSPPAPCRPVPCISLSPGPVLEPEALHTPTLMTTPSLTPFTPSLVFTYPSTPEPCASAHRKSSSSSGDPSSDPLGSPTLLAL

binding [3]: binds
B2: FRA-1 (FOSL-1 protein) (protein, UniProt P15407 1-271)
chain: B1 chain

binding [4]: binds
B3: FHL2 (four and a half LIM domains 2) (protein, UniProt Q14192 1-279)
chain: T2 sequence
